PubChem BioAssay AID1259254, NCATS, 2017
The deposit covers about 59,000 reagents; below is a part drawn at random. Of all reagents, about 1,550 (2.6%) are marked active. 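G2 share is only a proxy for re-replication; each gene was hit by three separate siRNAs, and active genes were retested.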 The raw values are shown without normalisation. Unmarked entries are inactive. The numbers tell different reagents against one gene apart. Reagent sequences are not shown. Not given: the amount of reagent.

- Screen: 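Genome-wide screen for genes that prevent DNA re-replication in cancer cells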 (primary screen)
- System: human HCT116 colorectal cancer cells
- Reagent: single siRNA against human genes
- Duration: 3 days
- Measured: 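Nuclei stained with Hoechst and imaged; cell-cycle phase assigned by DNA content; G2 share scaled per plate, non-targeting siRNA 0%, GMNN siRNA 100%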
- Scale: G2 robust z-score and G2 cells, % of GMNN control: higher = more G2 cells, more excess DNA replication; raw share of cells in G2: higher = larger share of cells with G2 DNA content
- Rule for the call: 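Active siRNAs have a G2 robust z of 5 or more median absolute deviations over the median, which in these data means about 38% or higher of GMNN control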

target gene	reagent	G2 robust z-score	G2 cells, % of GMNN control	raw share of cells in G2 (%)
RUNX1	1	0.772	8.4	6.79
RUNX1	2	1.51	13.6	11.2
RUNX1	3	0.236	4.63	4.79
RPL6P1	1	-0.683	-1.84	2.91
RPL6P1	2	1.22	11.6	7.8
RPL6P1	3	-0.422	0	3.12
VILL	1	-0.332	0.632	4.04
VILL	2	-0.413	0.0592	4.27
VILL	3	-0.93	-3.58	4.33
KLHL31	1	-0.452	-0.211	3.73
KLHL31	2	-0.408	0.0945	3.55
KLHL31	3	0.394	5.74	7.17
TREX2	1	-0.731	-2.18	3.12
TREX2	2	1.25	11.8	8.1
TREX2	3	5.43 (active)	41.1	22.9
RTL10	1	0.472	6.29	7.06
RTL10	2	0.13	3.88	6
RTL10	3	1.49	13.4	6.05
EPHA2	1	1.13	10.9	9.21
EPHA2	2	0.613	7.28	7.86
EPHA2	3	-1.16	-5.18	2.2
MTCH2	1	0.644	7.5	6.68
MTCH2	2	3	24.1	17.1
MTCH2	3	0.206	4.42	5.43
RPL6	1	4.14	32.1	18.6
RPL6	2	3.96	30.9	16.4
RPL6	3	2.84	23	11.7
ACTL7B	1	0.214	4.47	5.29
ACTL7B	2	0.34	5.36	8.59
ACTL7B	3	2.45	20.2	14.5
SERPINA5	1	0.954	9.68	8.86
SERPINA5	2	7.06 (active)	52.6	26.1
SERPINA5	3	-0.787	-2.57	2.32
TNXB	1	1.46	13.2	11.2
TNXB	2	0.141	3.96	5.78
TNXB	3	-0.69	-1.89	3.56
STPG1	1	0.0647	3.42	5.54
STPG1	2	-0.0154	2.86	3.9
STPG1	3	0.476	6.31	4.93
ZNF304	1	0.0888	3.59	4.06
ZNF304	2	-0.586	-1.15	5.39
ZNF304	3	0.0241	3.14	4.62
FAM167B	1	0.236	4.62	4.83
FAM167B	2	0.76	8.32	4.93
FAM167B	3	0.216	4.49	5.6
ANKRD30A	1	-0.0271	2.78	5.53
ANKRD30A	2	1.27	11.9	10.1
ANKRD30A	3	-0.362	0.422	5.87
PBX1	1	-0.666	-1.72	2.78
PBX1	2	-0.58	-1.12	4.32
PBX1	3	-0.543	-0.85	2.8
KLRG1	1	-0.457	-0.246	5.59
KLRG1	2	-0.502	-0.565	3.66
KLRG1	3	-1.85	-10	2.52
SLC5A2	1	0.765	8.35	6.72
SLC5A2	2	1.45	13.1	10.1
SLC5A2	3	0.141	3.96	5.91
CHCHD7	1	0.413	5.87	7.14
CHCHD7	2	-0.144	1.95	5.48
CHCHD7	3	-0.0285	2.77	3.43
ITGB8	1	1.92	16.4	10.2
ITGB8	2	0.392	5.72	7.12
ITGB8	3	3.36	26.6	15.8
SPINDOC	1	1.17	11.2	7.58
SPINDOC	2	2.24	18.7	8.7
SPINDOC	3	1.35	12.4	7.41
CHCHD2P10	1	0.12	3.81	6.37
CHCHD2P10	2	-0.131	2.05	4.56
CHCHD2P10	3	1.47	13.3	8.81

A stretch of the results above, as a working copy:
target gene	reagent	G2 robust z-score	G2 cells, % of GMNN control	raw share of cells in G2 (%)
MTCH2	1	0.644	7.5	6.68
MTCH2	2	3	24.1	17.1
MTCH2	3	0.206	4.42	5.43
RPL6	1	4.14	32.1	18.6
RPL6	2	3.96	30.9	16.4
RPL6	3	2.84	23	11.7
ACTL7B	1	0.214	4.47	5.29
